Literature values as cited in patent publication US20080125466A1, “Aryl-Substituted Benzo[D]Isothiazol-3-Ylamine Analogues” (NEUROGEN CORPORATION, priority 2003, published 2008).
Some of these results come from one statement about several compounds together. At least one compound was matched to its structure with a doubt left.

By UniProt entry, the sequences of proteins in these tests, tags left out.
UniProt Q8NER1, whole entry: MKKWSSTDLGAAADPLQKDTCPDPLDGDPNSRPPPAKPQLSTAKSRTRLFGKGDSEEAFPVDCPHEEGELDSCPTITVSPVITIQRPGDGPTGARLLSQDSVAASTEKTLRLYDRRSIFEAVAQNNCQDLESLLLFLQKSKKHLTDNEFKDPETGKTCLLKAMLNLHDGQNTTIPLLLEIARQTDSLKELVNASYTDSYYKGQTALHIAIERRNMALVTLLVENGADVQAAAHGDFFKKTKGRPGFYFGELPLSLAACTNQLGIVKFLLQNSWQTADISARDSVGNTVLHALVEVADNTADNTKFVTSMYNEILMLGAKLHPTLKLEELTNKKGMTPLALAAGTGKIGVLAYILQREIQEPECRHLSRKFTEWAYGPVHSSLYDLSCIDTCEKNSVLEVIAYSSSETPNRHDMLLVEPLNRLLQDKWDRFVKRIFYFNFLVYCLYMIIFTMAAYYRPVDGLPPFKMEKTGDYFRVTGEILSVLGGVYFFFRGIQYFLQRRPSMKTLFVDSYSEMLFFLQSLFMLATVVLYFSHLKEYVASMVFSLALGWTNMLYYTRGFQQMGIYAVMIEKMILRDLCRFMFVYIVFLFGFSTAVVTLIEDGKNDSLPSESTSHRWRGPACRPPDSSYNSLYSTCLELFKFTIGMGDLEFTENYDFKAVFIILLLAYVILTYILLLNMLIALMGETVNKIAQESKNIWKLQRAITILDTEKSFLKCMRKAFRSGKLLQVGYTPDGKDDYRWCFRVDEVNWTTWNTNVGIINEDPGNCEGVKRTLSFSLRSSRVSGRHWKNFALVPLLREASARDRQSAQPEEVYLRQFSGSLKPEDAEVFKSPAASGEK

Molecular target: VR (Homo sapiens, UniProt Q8NER1)
Conditions: typically; no more than moderate affinity; cited from earlier work

For `Cl.Cl.Cl.Cl.Cl.Cl.N.N.N.N.N.N.N.N.N.N.N.N.N.N.[O-2].[O-2].[Ru+3].[Ru+3].[Ru+4]` [ruthenium red], the Ki is listed as at least 140 µM.
